According to patent publication US8809290B2 (priority 2002, dated 2014):
Part of at least one peptide drawing is inferred or uncertain, most often the ends. No end group written: not given here.

Columns and labels:
[1] = system: I-Ed+SFERFEIFPKE (MHC class II-HA) complexes on APC; design: species or system BALB/c mice; conditions: mouse
[2] = system: HA-specific T cell hybridoma (TcH) with M12 B cell lymphoma APC; assay type: cell-based, mouse
[3] = system: T cell response against HA 110-120 peptide; design: species or system BALB/c mice; conditions: mouse, in vivo
[4] = system: T cell response to the HA 110-120 peptide; design: species or system BALB/c mice; conditions: mouse, in vivo

SFERFEIFPKE [HA peptide] was tested. Which “in vivo formation of MHC-peptide complexes on APC of secondary lymphoid organs (lymph nodes, spleen)” value [1] did it give?
The value was “could not restore the in vivo loading of APC”.

And the “TcH activation / formation of MHC-peptide complexes after pre-incubation of antigen with serum” value [2]?
The value was “decreased TcH activation”.

And the “TcH activation, addition of serum after APC pulsing” value [2]?
The value was “did not have an effect on TcH activation”.

And the “immune response (IFN-γ, IL-2 and IL-4 spot forming colonies/spleen)” value [3]?
Its value is “not immunogenic”.

And the “T cell response to loaded APC in absence of ITIM+ FcgRII” value [4]?
The value was “but not HA peptide”.

And the “requirement of gamma chain of ITAM+ FcgR isoforms for T cell response to loaded APC” value [4]?
The value was “not necessary for the immunogenic effect”.
